The text below walks through data of article PMC5033581.

These are yes or no findings as the source states them, for the method shown. In cells and extracts the contact can be indirect. Binding can be weak; no strength is given. For some assays here: Tags and fused reporters may be left off the sequences shown.

In test [1] the target is T1, endogenous zebrafish Capn3b (adult liver nucleoli) (zebrafish (endogenous in adult liver)) (UniProt E9QE31).
T1 sequence: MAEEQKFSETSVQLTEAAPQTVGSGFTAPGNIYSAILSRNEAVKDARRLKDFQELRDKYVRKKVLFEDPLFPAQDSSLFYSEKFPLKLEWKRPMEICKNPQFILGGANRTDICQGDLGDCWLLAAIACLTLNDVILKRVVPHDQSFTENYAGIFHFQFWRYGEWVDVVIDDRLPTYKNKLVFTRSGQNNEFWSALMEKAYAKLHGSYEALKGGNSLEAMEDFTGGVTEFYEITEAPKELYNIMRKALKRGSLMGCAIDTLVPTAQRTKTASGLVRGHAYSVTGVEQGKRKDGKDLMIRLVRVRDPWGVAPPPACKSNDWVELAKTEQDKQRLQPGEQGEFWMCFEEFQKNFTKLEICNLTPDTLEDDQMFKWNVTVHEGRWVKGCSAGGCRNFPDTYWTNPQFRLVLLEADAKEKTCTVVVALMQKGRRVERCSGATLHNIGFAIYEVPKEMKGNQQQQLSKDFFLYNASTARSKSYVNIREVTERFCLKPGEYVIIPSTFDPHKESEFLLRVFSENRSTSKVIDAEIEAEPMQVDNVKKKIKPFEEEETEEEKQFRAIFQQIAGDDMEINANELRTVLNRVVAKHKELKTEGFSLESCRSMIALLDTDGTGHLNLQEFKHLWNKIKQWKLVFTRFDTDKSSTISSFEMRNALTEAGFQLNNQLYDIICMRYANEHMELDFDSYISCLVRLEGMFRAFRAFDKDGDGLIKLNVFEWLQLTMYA
The test is described as follows: co-IP; endogenous proteins, nucleolar protein extract of adult zebrafish liver incubated with protein A/G agarose beads conjugated with anti-Capn3b antibody.

The target of test [2] is T2, Myc-Capn3b^C120S (zebrafish) (UniProt E9QE31).
T2 sequence: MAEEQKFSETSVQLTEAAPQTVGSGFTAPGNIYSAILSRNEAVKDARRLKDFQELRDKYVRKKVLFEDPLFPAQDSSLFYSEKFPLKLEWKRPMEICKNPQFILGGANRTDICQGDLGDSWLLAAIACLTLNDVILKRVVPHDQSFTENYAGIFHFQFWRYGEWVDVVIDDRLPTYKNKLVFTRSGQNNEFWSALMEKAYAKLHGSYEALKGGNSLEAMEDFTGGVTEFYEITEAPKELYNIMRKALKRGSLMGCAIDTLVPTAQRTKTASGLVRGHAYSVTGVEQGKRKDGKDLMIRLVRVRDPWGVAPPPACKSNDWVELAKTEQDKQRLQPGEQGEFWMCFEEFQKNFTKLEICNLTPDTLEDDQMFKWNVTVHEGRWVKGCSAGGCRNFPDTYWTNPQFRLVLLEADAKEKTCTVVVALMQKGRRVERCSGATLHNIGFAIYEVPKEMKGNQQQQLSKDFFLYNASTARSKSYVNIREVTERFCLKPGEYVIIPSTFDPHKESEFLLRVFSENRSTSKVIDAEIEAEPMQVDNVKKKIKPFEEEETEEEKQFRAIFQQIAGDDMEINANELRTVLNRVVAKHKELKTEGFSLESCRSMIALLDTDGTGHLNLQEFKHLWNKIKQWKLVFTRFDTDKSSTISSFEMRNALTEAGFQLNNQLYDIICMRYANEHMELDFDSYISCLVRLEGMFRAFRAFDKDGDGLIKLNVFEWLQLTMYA
The test is described as follows: co-IP; 293T co-transfected with zebrafish def and Myc-Capn3a^C110S or Myc-Capn3b^C120S plasmids; blots with antibodies against zebrafish Def and the Myc-tag.

The target in test [3] is Myc-Def (zebrafish, wild type) (zebrafish). Briefly: co-IP; 293T transfected with HA-capn3b^C120S plasmid alone or with Myc-def, Myc-def_S87,92A or Myc-def_S87,92E plasmid at ratios 1:1, 1:3 or 1:5; total protein 2 d after transfection; blots with anti-HA and anti-Myc (S2C Fig: 72 h, Myc-beads).
In test [4] the target is Myc-Def_S87,92A (zebrafish). Described as above.
The target in test [5] is Myc-Def_S87,92E (zebrafish). The description is as above.

For “endogenous zebrafish Def (adult liver nucleoli)”, in test [1], the binding result was “binds”.
In the case of zebrafish Def (expressed in 293T cells), the binding result in test [2] is on record as “binds”.

B1: HA-Capn3b^C120S (enzyme, UniProt E9QE31 1-723)
chain: MAEEQKFSETSVQLTEAAPQTVGSGFTAPGNIYSAILSRNEAVKDARRLKDFQELRDKYVRKKVLFEDPLFPAQDSSLFYSEKFPLKLEWKRPMEICKNPQFILGGANRTDICQGDLGDSWLLAAIACLTLNDVILKRVVPHDQSFTENYAGIFHFQFWRYGEWVDVVIDDRLPTYKNKLVFTRSGQNNEFWSALMEKAYAKLHGSYEALKGGNSLEAMEDFTGGVTEFYEITEAPKELYNIMRKALKRGSLMGCAIDTLVPTAQRTKTASGLVRGHAYSVTGVEQGKRKDGKDLMIRLVRVRDPWGVAPPPACKSNDWVELAKTEQDKQRLQPGEQGEFWMCFEEFQKNFTKLEICNLTPDTLEDDQMFKWNVTVHEGRWVKGCSAGGCRNFPDTYWTNPQFRLVLLEADAKEKTCTVVVALMQKGRRVERCSGATLHNIGFAIYEVPKEMKGNQQQQLSKDFFLYNASTARSKSYVNIREVTERFCLKPGEYVIIPSTFDPHKESEFLLRVFSENRSTSKVIDAEIEAEPMQVDNVKKKIKPFEEEETEEEKQFRAIFQQIAGDDMEINANELRTVLNRVVAKHKELKTEGFSLESCRSMIALLDTDGTGHLNLQEFKHLWNKIKQWKLVFTRFDTDKSSTISSFEMRNALTEAGFQLNNQLYDIICMRYANEHMELDFDSYISCLVRLEGMFRAFRAFDKDGDGLIKLNVFEWLQLTMYA
For B1, the binding entry in test [3], in test [4] and in test [5] was “binds” throughout.
